# Hit rate of the full screen: of about 350,000 compounds, about 220 (0.063%) were called active. This list was built around the results that the source calls inconclusive (neither active nor inactive); the mix of calls is not that of the screen. Calls come from the whole dose curve; as a rule, active = well fitted activation curve with a large enough effect; inconclusive = small, poorly fitted or top-dose-only effect; inactive = no such curve, though single readings can be large or run the other way. Where the call is inconclusive, the potency comes from a doubtful curve fit.
# Assay: qHTS for Activators of Integrin-Mediated Alleviation for Muscular Dystrophy; note: nearly all actives have a fitted effect of over 60% in size;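 for activation: 100% = response of the positive control SU9516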
# Conditions: alpha7betagal myoblasts, beta-gal FDG fluorescence, 48 h; activation: at 38.3 µM (top of the series)
# Method in brief: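 alpha7betagal+/- myoblasts (passage 13, 250/well) treated 48 h at 37C with compounds at 1:260 dilution of DMSO stock. Lysed, then beta-galactosidase activity read as FDG fluorescence (ex 480/em 540) after 30 min, with pre-read for autofluorescence.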
# Potency is the fitted concentration of half-maximal effect.
Compound,Potency,activation
CNc1nc(-c2ccc(Cl)cc2)cs1,"inconclusive: 5.01 µM [activator, single point]",
CN(CC(=O)Nc1c(Cl)cccc1Cl)C(=O)c1ccc(NS(=O)(=O)c2ccc3[nH]c(=O)[nH]c3c2)cc1,"inconclusive: 28.2 µM [activator, single point]",
COc1ccc(S(=O)(=O)N2CCCCCC2)cc1C(=O)N1CCN(c2ccccc2O)CC1,"inconclusive: 11.2 µM [activator, partial curve]",
COc1cccc(NC(=O)CN(C)C(C)C(=O)N2CCCCC2)c1 (stereo not given),"inconclusive: 5.01 µM [activator, single point]",
Cc1cc(NC(=O)CCC(=O)N(CC(=O)NCC2CCCO2)c2cccc(F)c2)no1 (stereo not given),"inconclusive: 3.16 µM [activator, single point]",
CCN(CC)C(=O)Cn1cc(SCC(=O)NCc2ccco2)c2ccccc21,,inactive: -10.1%
ClC1(Cl)CC1CSc1nc2ccccc2[nH]1 (stereo not given),"inconclusive: 2 µM [activator, single point]",
O=C(Cc1ccccc1)NCC(=O)N/N=C/c1ccc([N+](=O)[O-])s1,,inactive: -65.2%
Cc1ccc(NC(=O)c2cc(S(=O)(=O)Nc3ccc(C)cc3)cs2)cc1,,inactive: -12.3%
CCn1cnc2c([N+](=O)[O-])c(NS(=O)(=O)c3ccc(C)cc3)ccc21,,inactive: 14.6%
O=C(CCN1C(=O)/C(=C/c2ccc(Cl)cc2)SC1=S)NC1C=CS(=O)(=O)C1 (stereo not given),"inconclusive: 3.55 µM [activator, partial curve, poor fit]",
CC(=O)N(C)c1ccc(C(O)(C(F)(F)F)C(F)(F)F)cc1,"inconclusive: 5.62 µM [activator, partial curve, poor fit]",
O=C(NC1CCc2ccccc21)c1cc(COc2ccc(F)cc2Cl)on1 (stereo not given),"inconclusive: 10 µM [activator, single point]",
CCCCCCCCCn1ccc(=N)cc1,,inactive: -32.1%
O=C(NC1CCN(Cc2ccccc2)CC1)C12CC3CC(CC(C3)C1)C2,,inactive: -11.2%
CCc1ccc2nc(N3C(=O)C(O)=C(C(=O)c4ccco4)C3c3cccs3)sc2c1 (stereo not given),"inconclusive: 28.2 µM [activator, single point]",
CSc1nc(O)c(C(c2cccc([N+](=O)[O-])c2)c2c(O)nc(SC)[nH]c2=O)c(=O)[nH]1,"inconclusive: 5.01 µM [activator, single point]",
CC(Sc1nc2c(cc1C#N)CCCCC2)C(=O)O (stereo not given),"inconclusive: 5.01 µM [activator, single point]",
CN(Cc1ccccc1)C(=O)c1[nH]cnc1C(=O)NCc1ccccc1,,inactive: -15.6%
CCN(C(=O)COc1cc(=O)n(C)c2ccccc12)c1cccc(Cl)c1,"inconclusive: 28.2 µM [activator, single point]",
NC1=NC(=O)/C(=C/c2ccc(OCC(=O)O)cc2)S1,"inconclusive: 3.16 µM [activator, full curve, poor fit]",
CN(/C=C/C(=O)C(F)(F)F)Cc1ccccc1,"inconclusive: 14.1 µM [activator, single point]",
CC(=O)c1ccc(N2CCN(CC(=O)Nc3cc(C)on3)CC2)cc1,"inconclusive: 5.01 µM [activator, full curve, poor fit]",

Compound,Potency,activation
C[C@@H]1CN([C@H](C)CO)C(=O)c2cc(Br)cnc2O[C@@H]1CN(C)C(=O)c1ccccc1,,inactive: -15%
Cc1cccc(C)c1NC(=O)CNC(=O)Cc1ccccc1[N+](=O)[O-],"inconclusive: 5.01 µM [activator, single point]",
CCOc1ccc(S(=O)(=O)NCCC(=O)NC2CCN(Cc3ccccc3)CC2)cc1,,inactive: -11.3%
O=C(NCc1ccccc1)c1ccc(NC(=O)C2CCC2)cc1,,inactive: 20.1%
Cc1ccc(C(=O)n2cnnc2N)cc1C,"inconclusive: 5.01 µM [activator, single point]",
Cc1c(NC(NC(=O)CC(C)C)C(Cl)(Cl)Cl)c(=O)n(-c2ccccc2)n1C (stereo not given),,inactive: -22.7%
COc1ccc(Br)cc1C(=O)NC(=S)Nc1ccc(CN2CCOCC2)cc1,"inconclusive: 0.501 µM [activator, full curve, poor fit]",
COc1cccc2c1Oc1ncccc1N(C(=O)CCC(=O)NCc1ccc(C)cc1)C2,"inconclusive: 10 µM [activator, single point]",
CCOC(=O)c1cnc(SCc2ccccc2)nc1N,,inactive: 3.92%
Cc1cc(C(F)(F)F)nc(CCNC(=O)C2CCC(=O)N(Cc3cccc(F)c3)C2)n1 (stereo not given),"inconclusive: 11.2 µM [activator, partial curve, poor fit]",
Fc1ccc(F)c(C2=NNC(=Nc3ccccc3F)SC2)c1,,inactive: -67.1%
COC(=O)c1oc2ccccc2c1N,,inactive: 2.63%
O=C(Cc1ccc([N+](=O)[O-])cc1)N/N=C/c1ccc([N+](=O)[O-])o1,,inactive: -54.5%
CCc1ccccc1NC(=O)c1cc(=O)c2ccccc2o1,"inconclusive: 7.08 µM [activator, partial curve, poor fit]",
O=C(Cn1cc(C(F)(F)F)ccc1=O)N/N=C/c1ccc(Cl)c(Cl)c1,,inactive: 6.88%
Cc1ccc(NC(=O)CCC(=O)N/N=C/c2cccs2)cc1,"inconclusive: 5.01 µM [activator, single point]",
COc1ccc(NC(=O)Cn2cnc3ccccc3c2=O)cc1OC,"inconclusive: 3.55 µM [activator, single point]",
NS(=O)(=O)c1ccc(N2C(=O)C3C4CC(C(Br)C4Br)C3C2=O)cc1 (stereo not given),"inconclusive: 5.01 µM [activator, single point]",
CCCC(=O)Nc1ccc(NC(=O)c2ccco2)c(OC)c1,"inconclusive: 28.2 µM [activator, single point]",
COc1ccc2cc(C(=O)NCCCN3CCCC3=O)[nH]c2c1,"inconclusive: 12.6 µM [activator, partial curve, poor fit]",
COC(=O)c1sccc1NC(=O)Nc1ccccc1C,"inconclusive: 2.82 µM [activator, single point]",
Cc1ccc(C(=O)OC2CCCN(C)C2)cc1 (stereo not given),"inconclusive: 5.01 µM [activator, single point]",

# Taken from above.
# Potency, CCCC(=O)Nc1ccc(NC(=O)c2ccco2)c(OC)c1 reads inconclusive: 28.2 µM [activator, single point]
# Potency, COc1ccc(Br)cc1C(=O)NC(=S)Nc1ccc(CN2CCOCC2)cc1 reads inconclusive: 0.501 µM [activator, full curve, poor fit]
# Potency, NS(=O)(=O)c1ccc(N2C(=O)C3C4CC(C(Br)C4Br)C3C2=O)cc1 (stereo not given) reads inconclusive: 5.01 µM [activator, single point]

# — PubChem BioAssay AID624291 (National Center for Advancing Translational Sciences (NCATS), 2012)
